Data taken from PMC4492089, “FOXM1 binds directly to non-consensus sequences in the human genome”.
Where two headings read alike, the source gives them in different places. No constants are given. Whether binding was seen depends on the method and setting. In cells and extracts the contact can be indirect. These calls come from enrichment with a bait or labelling near it, and not all partners need be listed. Where a sequence is shown, tags or fusion partners need not be part of it.

Chains of the proteins cited; added tags and fusions are not shown.
UniProt P10244: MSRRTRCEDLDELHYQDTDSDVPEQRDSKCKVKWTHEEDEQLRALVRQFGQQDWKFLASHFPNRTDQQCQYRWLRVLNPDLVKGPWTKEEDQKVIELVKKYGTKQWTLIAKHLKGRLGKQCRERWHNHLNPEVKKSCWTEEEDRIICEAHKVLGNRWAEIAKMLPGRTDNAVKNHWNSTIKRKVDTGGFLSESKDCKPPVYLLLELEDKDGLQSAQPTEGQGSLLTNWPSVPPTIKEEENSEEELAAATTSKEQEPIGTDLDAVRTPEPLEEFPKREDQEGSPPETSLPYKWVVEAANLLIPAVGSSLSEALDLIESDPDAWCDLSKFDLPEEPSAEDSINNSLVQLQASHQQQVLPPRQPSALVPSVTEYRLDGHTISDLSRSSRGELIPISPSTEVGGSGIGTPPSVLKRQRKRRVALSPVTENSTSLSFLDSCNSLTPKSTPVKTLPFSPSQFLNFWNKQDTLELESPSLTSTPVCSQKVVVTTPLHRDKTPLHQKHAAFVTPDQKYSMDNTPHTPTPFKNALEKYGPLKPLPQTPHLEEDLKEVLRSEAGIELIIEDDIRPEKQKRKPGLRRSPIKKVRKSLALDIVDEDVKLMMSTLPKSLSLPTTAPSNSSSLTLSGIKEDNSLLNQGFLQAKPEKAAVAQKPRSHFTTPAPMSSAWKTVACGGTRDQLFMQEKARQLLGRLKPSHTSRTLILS
UniProt Q5TKA1: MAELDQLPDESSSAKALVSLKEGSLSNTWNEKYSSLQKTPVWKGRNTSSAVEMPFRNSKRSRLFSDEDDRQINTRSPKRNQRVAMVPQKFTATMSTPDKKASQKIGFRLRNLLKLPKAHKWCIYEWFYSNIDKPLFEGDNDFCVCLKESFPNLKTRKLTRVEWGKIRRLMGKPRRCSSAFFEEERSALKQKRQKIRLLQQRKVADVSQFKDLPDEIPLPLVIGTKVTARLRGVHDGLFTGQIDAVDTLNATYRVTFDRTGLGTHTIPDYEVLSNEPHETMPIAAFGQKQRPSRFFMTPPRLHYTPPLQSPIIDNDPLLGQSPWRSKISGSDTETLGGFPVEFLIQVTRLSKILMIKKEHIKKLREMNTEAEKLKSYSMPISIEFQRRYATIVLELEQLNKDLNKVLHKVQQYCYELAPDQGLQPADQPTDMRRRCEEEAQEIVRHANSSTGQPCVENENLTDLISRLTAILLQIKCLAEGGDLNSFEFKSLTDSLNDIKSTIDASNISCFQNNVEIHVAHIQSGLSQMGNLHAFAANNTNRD
UniProt Q96GY3: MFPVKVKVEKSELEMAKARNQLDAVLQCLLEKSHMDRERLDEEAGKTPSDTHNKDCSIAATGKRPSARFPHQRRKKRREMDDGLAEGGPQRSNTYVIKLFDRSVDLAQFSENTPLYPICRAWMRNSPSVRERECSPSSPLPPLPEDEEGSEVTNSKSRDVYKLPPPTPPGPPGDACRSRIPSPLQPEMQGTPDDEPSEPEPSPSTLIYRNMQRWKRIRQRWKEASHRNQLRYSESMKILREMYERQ
UniProt Q6MZP7: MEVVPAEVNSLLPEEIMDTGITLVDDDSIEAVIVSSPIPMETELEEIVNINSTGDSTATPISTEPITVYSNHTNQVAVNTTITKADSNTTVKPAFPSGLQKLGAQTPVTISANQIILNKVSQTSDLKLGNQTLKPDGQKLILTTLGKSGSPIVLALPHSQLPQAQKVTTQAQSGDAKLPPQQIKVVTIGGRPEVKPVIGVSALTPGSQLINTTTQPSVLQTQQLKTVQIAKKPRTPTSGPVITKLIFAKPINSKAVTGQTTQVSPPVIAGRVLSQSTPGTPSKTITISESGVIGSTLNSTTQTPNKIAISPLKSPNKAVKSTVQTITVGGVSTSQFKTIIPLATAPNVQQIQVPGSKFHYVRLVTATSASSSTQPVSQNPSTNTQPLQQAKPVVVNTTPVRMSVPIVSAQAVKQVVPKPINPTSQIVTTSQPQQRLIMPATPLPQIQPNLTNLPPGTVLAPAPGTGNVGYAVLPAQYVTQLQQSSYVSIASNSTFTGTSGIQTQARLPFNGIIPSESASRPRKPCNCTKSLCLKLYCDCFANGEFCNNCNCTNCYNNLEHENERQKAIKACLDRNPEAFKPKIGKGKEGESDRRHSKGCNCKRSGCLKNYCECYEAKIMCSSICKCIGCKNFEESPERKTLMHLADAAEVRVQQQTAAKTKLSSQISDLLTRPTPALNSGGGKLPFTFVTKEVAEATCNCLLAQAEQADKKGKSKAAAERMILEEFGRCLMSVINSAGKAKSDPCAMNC
UniProt P36873: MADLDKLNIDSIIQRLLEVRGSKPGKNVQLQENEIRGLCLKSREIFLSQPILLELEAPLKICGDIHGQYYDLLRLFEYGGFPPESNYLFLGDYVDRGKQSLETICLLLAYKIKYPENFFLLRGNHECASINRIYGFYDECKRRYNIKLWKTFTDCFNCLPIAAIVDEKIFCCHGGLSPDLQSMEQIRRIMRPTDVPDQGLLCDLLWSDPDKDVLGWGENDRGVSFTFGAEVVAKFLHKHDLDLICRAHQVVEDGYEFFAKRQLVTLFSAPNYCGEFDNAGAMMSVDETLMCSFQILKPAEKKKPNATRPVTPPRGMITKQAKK
UniProt Q00403: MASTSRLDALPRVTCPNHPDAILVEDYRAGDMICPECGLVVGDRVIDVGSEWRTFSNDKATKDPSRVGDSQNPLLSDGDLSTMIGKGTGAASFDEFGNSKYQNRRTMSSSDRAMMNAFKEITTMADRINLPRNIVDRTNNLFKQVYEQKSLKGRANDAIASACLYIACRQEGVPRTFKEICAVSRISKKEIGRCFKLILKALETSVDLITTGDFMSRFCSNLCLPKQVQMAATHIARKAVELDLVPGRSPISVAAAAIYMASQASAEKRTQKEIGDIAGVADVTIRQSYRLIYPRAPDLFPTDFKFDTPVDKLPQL

T1: GFP-FOXM1B R286A (human) (UniProt Q08050)
T1 sequence: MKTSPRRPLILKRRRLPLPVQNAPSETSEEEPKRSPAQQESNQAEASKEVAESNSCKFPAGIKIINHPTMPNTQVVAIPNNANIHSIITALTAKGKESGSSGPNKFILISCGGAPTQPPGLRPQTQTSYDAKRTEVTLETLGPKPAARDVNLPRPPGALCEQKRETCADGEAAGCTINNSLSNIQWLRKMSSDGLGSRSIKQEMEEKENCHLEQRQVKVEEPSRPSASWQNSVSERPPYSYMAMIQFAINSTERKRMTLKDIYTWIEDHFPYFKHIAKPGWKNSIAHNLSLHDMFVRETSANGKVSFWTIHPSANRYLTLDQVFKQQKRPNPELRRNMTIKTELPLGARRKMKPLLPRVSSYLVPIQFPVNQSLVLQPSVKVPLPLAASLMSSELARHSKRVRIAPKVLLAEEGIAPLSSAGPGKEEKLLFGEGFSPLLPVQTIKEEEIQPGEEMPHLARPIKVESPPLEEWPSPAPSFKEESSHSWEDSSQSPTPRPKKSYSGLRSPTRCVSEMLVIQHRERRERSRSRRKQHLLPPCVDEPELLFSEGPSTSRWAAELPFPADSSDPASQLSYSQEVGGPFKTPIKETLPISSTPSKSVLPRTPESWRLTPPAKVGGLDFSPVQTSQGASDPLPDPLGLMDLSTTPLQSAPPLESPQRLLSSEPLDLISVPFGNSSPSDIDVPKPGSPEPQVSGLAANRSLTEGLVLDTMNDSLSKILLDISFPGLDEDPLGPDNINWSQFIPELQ

T2: GFP-FOXM1B wild type (human) (UniProt Q08050)
T2 sequence: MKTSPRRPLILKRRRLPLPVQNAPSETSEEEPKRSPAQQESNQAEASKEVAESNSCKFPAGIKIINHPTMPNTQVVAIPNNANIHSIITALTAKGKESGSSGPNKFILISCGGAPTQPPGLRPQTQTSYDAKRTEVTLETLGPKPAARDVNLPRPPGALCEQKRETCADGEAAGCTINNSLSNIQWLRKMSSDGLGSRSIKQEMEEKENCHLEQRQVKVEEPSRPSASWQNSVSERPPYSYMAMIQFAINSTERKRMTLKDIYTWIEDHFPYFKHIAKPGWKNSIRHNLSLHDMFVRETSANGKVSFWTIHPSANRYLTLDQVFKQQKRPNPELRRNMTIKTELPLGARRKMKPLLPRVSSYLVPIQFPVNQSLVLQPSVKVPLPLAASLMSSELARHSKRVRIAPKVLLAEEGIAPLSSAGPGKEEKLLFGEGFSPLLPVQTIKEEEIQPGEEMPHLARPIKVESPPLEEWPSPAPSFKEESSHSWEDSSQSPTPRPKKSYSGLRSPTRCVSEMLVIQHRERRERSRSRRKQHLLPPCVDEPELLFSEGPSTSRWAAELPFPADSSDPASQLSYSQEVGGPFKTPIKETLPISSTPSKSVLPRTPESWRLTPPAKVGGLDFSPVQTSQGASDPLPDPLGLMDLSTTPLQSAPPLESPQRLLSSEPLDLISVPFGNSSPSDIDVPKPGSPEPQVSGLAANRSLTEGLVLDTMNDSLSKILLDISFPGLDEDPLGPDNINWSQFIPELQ


How the values were obtained:
Test in all cases: affinity purification with mass spectrometry; RIME: HEK293 cells expressing GFP only, GFP-FOXM1 WT or GFP-FOXM1 R286A cross-linked with 1 % formaldehyde for 7 min; sonicated chromatin lysate immunoprecipitated with anti-GFP antibody (ab290) on protein G Dynal beads, washed 10X with RIPA buffer; LC-MS/MS; proteins found in the GFP only cell line not considered
GFP-FOXM1B R286A (human) = target: T1, GFP-FOXM1B R286A (human)
[1] = target: T2, GFP-FOXM1B wild type (human)
[2] = target: T2, GFP-FOXM1B wild type (human); remark: listed apart in the source

Row | binding (GFP-FOXM1B R286A (human)) | binding [1] | binding [2] | Molecule
1 | binds | binds | – | B-MYB (from UniProt P10244 1-700)
2 | binds | binds | – | LIN9 (from UniProt Q5TKA1 1-542)
3 | binds | binds | – | LIN37 (from UniProt Q96GY3 1-246)
4 | – | – | binds | E3 Ubiquitin-Protein Ligase UHRF1 (enzyme, UniProt Q96T88 1-793) MWIQVRTMDGRQTHTVDSLSRLTKVEELRRKIQELFHVEPGLQRLFYRGKQMEDGHTLFDYEVRLNDTIQLLVRQSLVLPHSTKERDSELSDTDSGCCLGQSESDKSSTHGEAAAETDSRPADEDMWDETELGLYKVNEYVDARDTNMGAWFEAQVVRVTRKAPSRDEPCSSTSRPALEEDVIYHVKYDDYPENGVVQMNSRDVRARARTIIKWQDLEVGQVVMLNYNPDNPKERGFWYDAEISRKRETRTARELYANVVLGDDSLNDCRIIFVDEVFKIERPGEGSPMVDNPMRRKSGPSCKHCKDDVNRLCRVCACHLCGGRQDPDKQLMCDECDMAFHIYCLDPPLSSVPSEDEWYCPECRNDASEVVLAGERLRESKKKAKMASATSSSQRDWGKGMACVGRTKECTIVPSNHYGPIPGIPVGTMWRFRVQVSESGVHRPHVAGIHGRSNDGAYSLVLAGGYEDDVDHGNFFTYTGSGGRDLSGNKRTAEQSCDQKLTNTNRALALNCFAPINDQEGAEAKDWRSGKPVRVVRNVKGGKNSKYAPAEGNRYDGIYKVVKYWPEKGKSGFLVWRYLLRRDDDEPGPWTKEGKDRIKKLGLTMQYPEGYLEALANREREKENSKREEEEQQEGGFASPRTGKGKWKRKSAGGGPSRAGSPRRTSKKTKVEPYSLTAQQSSLIREDKSNAKLWNEVLASLKDRPASGSPFQLFLSKVEETFQCICCQELVFRPITTVCQHNVCKDCLDRSFRAQVFSCPACRYDLGRSYAMQVNQPLQTVLNQLFPGYGNGR
5 | – | – | binds | PPM1G (enzyme, UniProt O15355 1-546) MGAYLSQPNTVKCSGDGVGAPRLPLPYGFSAMQGWRVSMEDAHNCIPELDSETAMFSVYDGHGGEEVALYCAKYLPDIIKDQKAYKEGKLQKALEDAFLAIDAKLTTEEVIKELAQIAGRPTEDEDEKEKVADEDDVDNEEAALLHEEATMTIEELLTRYGQNCHKGPPHSKSGGGTGEEPGSQGLNGEAGPEDSTRETPSQENGPTAKAYTGFSSNSERGTEAGQVGEPGIPTGEAGPSCSSASDKLPRVAKSKFFEDSEDESDEAEEEEEDSEECSEEEDGYSSEEAENEEDEDDTEEAEEDDEEEEEEMMVPGMEGKEEPGSDSGTTAVVALIRGKQLIVANAGDSRCVVSEAGKALDMSYDHKPEDEVELARIKNAGGKVTMDGRVNGGLNLSRAIGDHFYKRNKNLPPEEQMISALPDIKVLTLTDDHEFMVIACDGIWNVMSSQEVVDFIQSKISQRDENGELRLLSSIVEELLDQCLAPDTSGDGTGCDNMTCIIICFKPRNTAELQPESGKRKLEEVLSTEGAEENGNSDKKKKAKRD

The next lines start with the molecule.

Row | Molecule | binding (GFP-FOXM1B R286A (human)) | binding [1] | binding [2]
6 | LIN54 (from UniProt Q6MZP7 1-749) | binds | binds | –
7 | PP1G (from UniProt P36873 1-323) (enzyme) | – | binds | –
8 | general transcription factor TF2B (from UniProt Q00403 1-316) | binds | binds | –
